Laboratory results taken from patent US20250270301A1.
Substitutions are numbered along the chain they refer to. These are yes or no findings as the source states them, for the method shown. Some entries that bind do so weakly or less than the wild type.

By UniProt entry, the sequences of proteins in these tests, tags left out. Where a name states a change or a piece, a line headed by the entry shows the natural chain unless it says otherwise.
UniProt P10636: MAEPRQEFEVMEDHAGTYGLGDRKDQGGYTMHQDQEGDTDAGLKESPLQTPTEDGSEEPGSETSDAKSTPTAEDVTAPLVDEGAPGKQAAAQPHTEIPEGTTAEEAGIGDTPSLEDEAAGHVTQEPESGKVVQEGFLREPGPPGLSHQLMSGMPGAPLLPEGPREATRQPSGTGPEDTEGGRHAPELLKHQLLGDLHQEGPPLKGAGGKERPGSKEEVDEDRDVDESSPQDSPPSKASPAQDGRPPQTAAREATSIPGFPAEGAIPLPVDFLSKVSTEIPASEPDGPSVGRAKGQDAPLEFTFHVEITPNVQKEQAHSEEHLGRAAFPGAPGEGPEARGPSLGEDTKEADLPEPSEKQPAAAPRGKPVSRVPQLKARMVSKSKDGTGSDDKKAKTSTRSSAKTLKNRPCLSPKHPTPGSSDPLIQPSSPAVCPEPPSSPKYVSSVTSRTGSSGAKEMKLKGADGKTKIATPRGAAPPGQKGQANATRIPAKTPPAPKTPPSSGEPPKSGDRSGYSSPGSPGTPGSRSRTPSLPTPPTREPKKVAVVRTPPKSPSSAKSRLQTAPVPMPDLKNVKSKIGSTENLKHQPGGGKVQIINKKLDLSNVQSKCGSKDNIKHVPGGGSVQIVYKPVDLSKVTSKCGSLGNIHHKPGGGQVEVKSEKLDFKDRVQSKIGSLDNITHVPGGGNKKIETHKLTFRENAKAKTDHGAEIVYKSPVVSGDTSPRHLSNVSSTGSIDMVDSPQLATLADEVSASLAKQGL

B1: #44_VH4VK4_H14/pVL (antibody, V domains shown)
VH: QVQLQESGPGLVKPSETLSLTCTVSGIDLSSYAMAWVRQAPGKGLEWIGAIDSAGSTFYASWVKGRSTISKDTSKTTVDLQMTSLTAEDTATYFCARDSGAFDPWGQGTLVTVSS
VL: DIQMTQSPSSLSASVGDRVTITCQASQSVYDNYLAWYQQKPGQPPKLLIHAASNLASGVPSRFSGSGSGTEFTLTISSLQPDDFATYYCLGEFSCTTTDCNVFGGGTKVEIK
B2: #44_VH4VK4 pVH/L2 (antibody, V domains shown)
VH: B1 VH with A50C, S53R, A54R, S56G, S67F
VL: DIQMTQSPSSLSASVGDRVTITCQASQSVYDNYLAWYQQKPGQPPKLLIHAASNLASGVPSRFSGSGSGTEFTLTISSLQPDDFATYYCLGEFSCQDTDCNVFGGGTKVEIKR

Key:
[1] = target: full length recombinant human 2N4R tau (human) (UniProt P10636); assay: ELISA on 2N4R tau, HEK supernatant (legend 1:100; paragraph 307: matched to 30 ng/ml), anti-human IgG-HRP, n=1
[2] = target: full length recombinant human 2N4R tau (human) (UniProt P10636); assay: ELISA, supernatants at 30 ng/ml

Binder | binding [1] | binding [2]
B1 | binds | binds
B2 | binds | binds
